Library screen at single concentrations

By UniProt entry, the sequences of proteins in these tests, tags left out. Residues count along the entry.
UniProt P9WFT3, whole entry: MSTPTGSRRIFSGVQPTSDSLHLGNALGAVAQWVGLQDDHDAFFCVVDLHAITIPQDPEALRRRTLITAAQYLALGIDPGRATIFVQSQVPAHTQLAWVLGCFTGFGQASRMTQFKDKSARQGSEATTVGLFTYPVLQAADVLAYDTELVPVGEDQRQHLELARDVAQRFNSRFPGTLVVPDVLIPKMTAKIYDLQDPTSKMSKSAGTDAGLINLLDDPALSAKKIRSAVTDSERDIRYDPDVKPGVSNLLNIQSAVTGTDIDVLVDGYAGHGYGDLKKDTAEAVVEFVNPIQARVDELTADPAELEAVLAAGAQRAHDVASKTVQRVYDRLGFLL
UniProt Q4DA54, 1-478: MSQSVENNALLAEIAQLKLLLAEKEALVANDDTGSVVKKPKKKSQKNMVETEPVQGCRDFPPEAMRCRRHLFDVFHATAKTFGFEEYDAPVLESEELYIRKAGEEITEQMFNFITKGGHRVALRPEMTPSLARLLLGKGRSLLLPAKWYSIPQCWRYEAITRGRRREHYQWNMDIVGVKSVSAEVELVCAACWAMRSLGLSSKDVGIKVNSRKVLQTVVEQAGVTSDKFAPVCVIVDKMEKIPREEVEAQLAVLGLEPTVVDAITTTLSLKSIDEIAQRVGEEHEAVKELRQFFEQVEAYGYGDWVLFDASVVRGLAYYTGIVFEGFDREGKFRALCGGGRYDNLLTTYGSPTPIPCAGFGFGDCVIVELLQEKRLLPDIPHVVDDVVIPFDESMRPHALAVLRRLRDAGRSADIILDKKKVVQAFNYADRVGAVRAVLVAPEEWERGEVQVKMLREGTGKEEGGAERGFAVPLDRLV

Source: ChEMBL document CHEMBL3988442, “University of Dundee, Small-Polar-MMV Screening Library” (2021).

A: 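Enzyme assay of tryptophanyl-tRNA synthetase; the read-out is not stated. Target: Tryptophan-tRNA ligase, Mycobacterium tuberculosis (UniProt P9WFT3). Compounds at 10 µM. Direction is not recorded; retested compounds ran higher, which suggests that high means inhibition. Size under these conditions: about 65,000 compounds, about 64 of them at 50% or above in at least one test.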
B: 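Cell assay of Leishmania donovani living inside macrophages; the read-out is not stated. Compounds at 30 µM. Higher reads as stronger inhibition (inferred: compounds with an IC50 in retests scored well above the rest). About 69,000 compounds were tested under these conditions; 1.5% (about 1,000) showed 50% or more at least once.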
C: 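Enzyme assay of histidyl-tRNA synthetase; the read-out is not stated. Target: Histidine-tRNA ligase, Trypanosoma cruzi CL Brener (UniProt Q4DA54). Tested at 30 µM. Direction is inferred from retests: higher values go with stronger inhibition. Of about 69,000 compounds tested this way, about 31 (0.045%) reached 50% or more in at least one test.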

Each number is a percent effect as filed.
The record does not define 0% and 100%; most values in the screen are far below 50% and negative numbers occur (in some assays of this library far below -100).
This is an unselected part of the compounds tested.
Two or more numbers in one place are separate tests of the same structure; such repeats can differ widely.
A dash means the value is not listed here; it may have been measured.

{"smiles": "Cc1ccc(-c2cc(C(=O)NCC3CCOC3)n[nH]2)s1", "stereo": "stereo not shown", "A": 3.038, "B": -17.19, "C": 9.524}
{"smiles": "CC(Cn1cncn1)NCc1ccc2nonc2c1", "stereo": "stereo not shown", "A": -3.32, "B": 48.81, "C": 8.901}
{"smiles": "O=C(c1ccc(Cl)cc1)N1CCc2nc(C(=O)N3CCCC3)sc2CC1", "A": 8.462, "B": -21.73, "C": 5.882}
{"smiles": "COC[C@@H]1CC[C@H]2[C@H](CCN2S(=O)(=O)c2ccc(F)cc2)O1", "A": -2.397, "C": 4.918}
{"smiles": "CN(C)C(=O)N1CCN(Cc2ccccc2)[C@@H]2CS(=O)(=O)C[C@@H]21", "A": 1.006, "C": 2.5}
{"smiles": "CCc1n[nH]c(C(=O)NCCn2ccc(C)n2)c1C", "A": 6.479, "B": -13.23, "C": -3.383}
{"smiles": "[H][C@@]12COC[C@]1(COc1ccc(C#N)cn1)CN(Cc1c(C)noc1C)C2", "B": 22.11}
{"smiles": "O=C(c1cscn1)N1CCC2(CCN(S(=O)(=O)c3ccccc3)C2)C1", "stereo": "stereo not shown", "A": -1.514, "B": "21.42 & -0.7461", "C": 2.151}
{"smiles": "O=C(O)C(F)(F)F.O=C(O)C(F)(F)F.[H][C@@]12CCCO[C@]1([H])[C@@H](OCc1ccncc1)CN2c1nnc(C)s1", "B": 4.75}
{"smiles": "CC(=O)N1CC[C@@]2(O)CCCC[C@H]2[C@@H]1c1ccc2c(c1)OCO2", "A": -1.618, "C": 3.96}
{"smiles": "O=C(C1CCC1)N1C[C@@H]2CN(Cc3ccncc3)C(=O)[C@@H]2C1", "C": 4.523}
{"smiles": "Cc1ccc2cc(C(=O)NCCN3CCS(=O)(=O)CC3)c(C)nc2c1", "A": -6.278, "B": 8.2, "C": 7.514}
{"smiles": "CCNC(=O)N(C)C1CCCc2nc(C)sc21", "stereo": "stereo not shown", "A": -4.161, "B": -64.39, "C": 3.175}
{"smiles": "Brc1cccc(C2(CNCc3cc[nH]c3)CCOCC2)c1", "A": 0.1009, "B": 8.306, "C": 4.459}
{"smiles": "CC(C)NC(=O)N1CCC[C@H]1C(=O)NCCCc1cccc(F)c1", "A": -4.85, "B": -41.42, "C": 12.71}
{"smiles": "CN1CCN(Cc2cccnc2)C(=O)C12CCN(S(C)(=O)=O)CC2", "A": -4.215, "B": -3.191, "C": 8.738}
{"smiles": "O=C(O)C(F)(F)F.O=C(O)C(F)(F)F.[H][C@@]12CN(Cc3ccco3)C[C@]1([H])[C@H](OC)CCN2Cc1cnn(C)c1", "B": 28.72}
{"smiles": "O=C(c1ccc2c(c1)OCO2)N1C[C@H](OCC2CC2)[C@H]2COC[C@H]21", "A": -1.841, "C": -11.04}
{"smiles": "O=C(O)C(c1ccc2c(c1)OCO2)N1CCC(C(=O)N2CCCC2)CC1", "stereo": "stereo not shown", "A": -2.309, "B": 8.828, "C": 6.224}
{"smiles": "O=C(Nc1ccc2c(ccn2CCN2CCOCC2)c1)c1ccccn1", "A": -7.424, "B": 13.67, "C": 5.752}

For reference, 3 entries once more:

SMILES	A	B	C
CC(C)NC(=O)N1CCC[C@H]1C(=O)NCCCc1cccc(F)c1	-4.85%	-41.42%	12.71%
O=C(c1cscn1)N1CCC2(CCN(S(=O)(=O)c3ccccc3)C2)C1 (stereo not shown)	-1.514%	21.42% & -0.7461%	2.151%
CC(=O)N1CC[C@@]2(O)CCCC[C@H]2[C@@H]1c1ccc2c(c1)OCO2	-1.618%	-	3.96%